For at least one compound, name, drawing or mass did not settle the structure.
Legend:
rat βGK promoter [1] = test: On-line monitoring of βGK promoter-driven GFP expression (prβGK.GFP) in transfected HIT-T15 cells, islet cells and islets; assay type: cell-based, hamster (HIT-T15), rat (islet cells); conditions: 5 mU/ml insulin; 25 μM LY294002, 10 nM rapamycin, 400 nM AC, 100 μM HNMPA-(AM)3
Source text: Construction of prIns1.GFP has been described earlier (Leibiger et al., 1998a). Vector prIns1.DsRed was generated by exchanging the EGFP-expression cassette versus the DsRed-expression cassette obtained from pDsRed1-1 (Clontech). Plasmid prβGK.GFP (i.e. prβGK-278.GFP) was generated by exchanging the CAT-SV40pA-expression cassette of prβGK-278.CAT (Leibiger et al., 1994a) versus the EGFP-bGHpA-expression cassette obtained from pRcCMVI.GFP (Moede et al., 1999). […] All vector constructions were verified by DNA sequence analysis. […] Expression constructs pCMV5.PKBα, pCMV5.PKBαΔ308/437, pCMV5.PDK1 and pCMV5.PDK1-antisense were kindly provided by Drs. […]
Islets were transduced with Ad.rβGK.GFP or Ad.CMV.GFP by incubating 50 islets with 1 ml virus-containing medium for 90 min at 37° C. and 5% CO2. […] Islets were stimulated 40-72 h after transduction, as described below and analyzed by laser-scanning confocal microscopy. […]
Detection of fluorescence by digital imaging fluorescence microscopy was performed as described previously (Leibiger et al., 1998a; Leibiger et al., 1998b). […] Fluorescence imaging was performed with a cooled charged-coupled device camera (CH250 with KAF 1400, Photometrics, Tucson, Ariz.) connected to an imaging system (Inovision) with fluorescence excitation from a SPEX fluorolog-2 CM1T11I spectrofluorometer (Spex Industries).

rat βGK promoter [2] = test: βGK promoter-driven GFP expression in co-transfected human islet cells; assay type: cell-based; conditions: 100 μM HNMPA-(AM)3, higher concentrations: 150 nM wortmannin, 100 μM LY 294002 (FIG. 15)
Experimental: (§1) Data are presented as the ratio of fluorescence obtained at minutes 240 and 60 and represent mean values ±S.E. (n=11).
Detection of fluorescence by digital imaging fluorescence microscopy was performed as described previously (Leibiger et al., 1998a; Leibiger et al., 1998b). Briefly, transfected cells were grown on 24-mm glass coverslips. After stimulation the coverslips were placed into a perifusion chamber which was mounted on an inverted microscope (Zeiss Axiovert 135TV). Temperature was kept at 37° C. and the cells were perfused with RPMI 1640 medium. The objective lens used was a Zeiss-Fluar ×40/1.30 oil Imm Korr. Fluorescence imaging was performed with a cooled charged-coupled device camera (CH250 with KAF 1400, Photometrics, Tucson, Ariz.) connected to an imaging system (Inovision) with fluorescence excitation from a SPEX fluorolog-2 CM1T11I spectrofluorometer (Spex Industries). […]
(§2) On-line monitoring was initiated 60 min following the start of stimulation and the 60-min value of GFP- or DsRed-fluorescence was set to 1.0. Cells to be monitored were chosen randomly at minute 60 from six fields of vision and fluorescence was monitored up to minute 240. By overlaying the fluorescence and phase-contrast images, the position of cells on the coverslip could be checked. Fluorescence intensity was calculated by using the ISee-software for UNIX (Inovision Corporation).

rat insulin-I promoter = test: Insulin promoter-driven DsRed expression in co-transfected human islet cells; assay type: cell-based; conditions: 400 nM AC, 10 nM rapamycin, low concentrations: 50 nM wortmannin, 25 μM LY 294002 (FIG. 15)
Experimental: as §1
Detection of fluorescence by digital imaging fluorescence microscopy was performed as described previously (Leibiger et al., 1998a; Leibiger et al., 1998b). Briefly, transfected cells were grown on 24-mm glass coverslips. After stimulation the coverslips were placed into a perifusion chamber which was mounted on an inverted microscope (Zeiss Axiovert 135TV). Temperature was kept at 37° C. and the cells were perfused with RPMI 1640 medium. The objective lens used was a Zeiss-Fluar ×40/1.30 oil Imm Korr. Fluorescence imaging was performed with a cooled charged-coupled device camera (CH250 with KAF 1400, Photometrics, Tucson, Ariz.) connected to an imaging system (Inovision) with fluorescence excitation from a SPEX fluorolog-2 CM1T11I spectrofluorometer (Spex Industries). The following filter-settings were used: for GFPs65T: excitation at 485 nm, a 505 nm dicroic mirror and an emission band-pass filter of 500-530 nm; for DsRed: excitation at 558 nm, a 565 nm dicroic mirror and a 580 nm long-pass filter for emission
as §2

SMILES: O=c1cc(N2CCOCC2)oc2c(-c3ccccc3)cccc12 [LY294002]
- effect of inhibitor on insulin-stimulated βGK promoter activity (GFP) in the same co-transfected cell (rat βGK promoter [1]): did not block
- effect of inhibitor on insulin-stimulated glucokinase transcription (rat βGK promoter [2]): inhibitory effect
- effect of inhibitor on insulin-stimulated insulin gene expression (rat insulin-I promoter): inhibited by low concentrations
